# PubChem BioAssay AID504444 (National Center for Advancing Translational Sciences (NCATS), 2011)
# “And” between values parts separate entries of the source, which are not always exact repeats. Equal values may be shown once. Hit rate of the full screen: of about 360,000 compounds, about 7,500 (2.1%) were called active. The shares of active, inactive and inconclusive entries below differ from those in the screen. The call rests on the fitted dose curve; in most records, active means well fitted inhibition curve with a large enough effect; inconclusive means small, poorly fitted or top-dose-only effect, or effect the other way; inactive means flat fitted curve, though single readings scatter. Potencies beside an inconclusive call are fits to weak or partial responses and may not hold up.
# Assay: Nrf2 qHTS screen for inhibitors; further: nearly all actives have a fitted effect of over 60% in size
# Settings: A549 ARE-Fluc reporter, luciferase luminescence, 18-24 h; activity change, negative = inhibition: at 46 µM (top of the series)
# Procedure, shortened: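 Quantitative HTS in A549 cells stably bearing an antioxidant response element-firefly luciferase construct. Inhibition of Nrf2-driven transcription was scored by luminescence after 18-24 h of compound exposure at 37 °C.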
# On the % scale 0 is the no-effect control and ±100 the full control effect; potency means the concentration at half of the fitted maximal effect.
Structure (SMILES),Potency,"activity change, negative = inhibition"
CCNc1nc(NC(C)C)nc(N(C#N)CCOc2ccccc2)n1,"inconclusive: 29.1 µM [falling, single point]",
COC(=O)COc1ccccc1C(=O)Nc1ccc(OC)cc1,inactive,
CC1CC(=O)Nc2ccccc2N1C(=O)CN1CCN(C=O)CC1 (configuration not stated),"inconclusive: 32.6 µM [activator, partial curve, poor fit]",
CCOc1ccc(NC(=O)N(Cc2c[nH]c3ccccc23)C2CCCCC2)cc1,"inconclusive: 7.31 µM [activator, partial curve, poor fit]",
Cc1ccc(NC(=O)c2ccc(Cl)cc2[N+](=O)[O-])nc1,"inconclusive: 20.6 µM [activator, partial curve]",
Cc1ccc2nc(NC(=O)CNS(=O)(=O)c3ccc(Br)s3)sc2c1,"inconclusive: 20.6 µM [activator, single point]",
Cc1onc(-c2ccccc2)c1C(=O)N/N=C(\N)COc1ccc(Cl)cc1,"inconclusive: 20.6 µM [falling, partial curve, poor fit]",
CCN(CC)c1ccc(/C=N/Nc2nc(C)cc(C)n2)c(O)c1,"inconclusive: 20.6 µM [falling, single point]",
O=C(NCc1ccc2c(c1)OCO2)c1nc(S(=O)(=O)Cc2ccccc2)ncc1Cl,"inconclusive: 29.1 µM [falling, single point]",
Cc1ccc2cc(CCNC(=O)c3cccc([N+](=O)[O-])c3)c(=O)[nH]c2c1,"inconclusive: 13 µM [falling, partial curve]",
CCN(CC)CCNC(=O)C1CCCN(c2ncnc3onc(C)c23)C1 (configuration not stated),"inconclusive: 11.6 µM [activator, partial curve]",
Cc1ccc2c(c1)sc(=NC(=O)c1cccs1)n2C,"inconclusive: 6.51 µM [activator, single point]",
COc1ccc(CCNC(=O)Cn2nc(C)n3c(cc4occc43)c2=O)cc1OC,inactive,
CC(C)(C)c1nc(NC(=O)Nc2ccccc2)sc1Br,"inconclusive: 29.1 µM [falling, single point]",
CCOC(=O)N1CCC2(CC1)C(C#N)=C(N)OC1=C2C(=O)CC(C)C1 (configuration not stated),"inconclusive: 29.1 µM [falling, single point]",
Cc1ccc(-n2c(C)nn(CCOc3ccccc3)c2=O)cc1,"inconclusive: 10.3 µM [activator, partial curve]",
CCc1nnc(NC(=O)CSc2nc3c(c(=O)n2CC)SC(C)C3)s1 (configuration not stated),"inconclusive: 20.6 µM [falling, single point]",
Cc1ccc(C)c(N2CCN(C(=O)CCCCCn3c(=S)[nH]c4ccc(N5CCOCC5)cc4c3=O)CC2)c1,"inconclusive: 18.4 µM [falling, single point]",
Cc1cc(=O)n(CC(=O)NCCC(C)C)c2c1c(C)nn2C,inactive,
CN1CCc2c(c3c(n2C)CCN(C)C3c2ccc(F)cc2)C1c1ccc(F)cc1 (configuration not stated),"inconclusive: 11.6 µM [falling, partial curve, poor fit]",
Cc1sc2nc(CN(Cc3cccs3)C(=O)NC3CCCCC3)[nH]c(=O)c2c1C,"inconclusive: 29.1 µM [falling, single point]",
CCCCNC1c2ccccc2C(=O)N1Cc1ccccc1 (configuration not stated),inactive,
Cc1ccc(C)c(S(=O)(=O)N(C(=O)c2ccncc2)c2ccc(OC(=O)c3ccncc3)cc2)c1,"inconclusive: 29.1 µM [falling, single point]",

Structure (SMILES),Potency,"activity change, negative = inhibition"
CCCN1CCn2c3c(c4cc(Br)ccc42)CCCC31 (configuration not stated),"inconclusive: 25.9 µM [activator, partial curve, poor fit]",
CN1CCCN=C1/C=C/c1cccs1,inactive,
COc1ccc(N2CCN(C(=O)CN(c3cccc(Br)c3)S(C)(=O)=O)CC2)cc1,inactive,
N/C(=N\S(=O)(=O)c1cc(C(F)(F)F)cc(C(F)(F)F)c1)c1cccs1,active: 20.6 µM,
Fc1ccccc1-n1c(-c2ccc3ccccc3n2)n[nH]c1=S,inactive,
C=CCOC(=O)C1=C(C)NC(=O)NC1c1cc(Cl)cc(Cl)c1OC (configuration not stated),"inconclusive: 5.17 µM [falling, partial curve]",
CCCCCCn1nc(C(=O)Nc2nc3c(s2)CCCC3)c2ccccc2c1=O,inactive,
Fc1ccc2cc(-c3cccnc3)ncc2c1,"inconclusive: 16.4 µM [activator, single point]",
CNC(=O)c1sc(NCc2ccccc2OC)nc1C,"inconclusive: 14.6 µM [falling, partial curve, poor fit]",
Cc1cc(S(=O)(=O)N2CCN(CC(=O)N(C)Cc3ccccc3)CC2)ccc1Br,"inconclusive: 29.1 µM [falling, single point]",
O=C(c1ccc(Oc2ccc([N+](=O)[O-])cc2)cc1)N1CCCCCC1,active: 5.8 µM,
CCc1ccc2nc(N3CCC(C(=O)O)CC3)sc2c1,,inconclusive: 50.2% [activator]
O=C(Nc1nc(-c2ccc(S(=O)(=O)N3CCOCC3)cc2)cs1)c1ccccc1,active: 7.31 µM and active: 4.61 µM,
Cc1csc2ncc(C(=O)Nc3cccc(C(F)(F)F)c3)c(=O)n12,"inconclusive: 3.26 µM [activator, partial curve, poor fit]",
O=C(N/N=C/C=C/c1ccccc1)C(O)c1ccccc1 (configuration not stated),"inconclusive: 29.1 µM [activator, single point]",
Clc1ccc(CSc2ccc(-c3ccco3)nn2)cc1,"inconclusive: 11.6 µM [activator, partial curve]",
Cc1ccc(CN2CC(C(=O)N3CCN(S(=O)(=O)c4cc(C)ccc4C)CC3)CC2=O)cc1 (configuration not stated),"inconclusive: 16.4 µM [falling, partial curve, poor fit]",
COc1ccc(-c2csc(NC(C)c3nc4cc(Cl)c(N5CCCCC5)cc4n3CCOCCO)n2)cc1 (configuration not stated),"inconclusive: 25.9 µM [falling, single point]",
COCC(C)n1c(SCC(=O)NC(=O)NC2CCCC2)nc2ccccc2c1=O (configuration not stated),"inconclusive: 23.1 µM [falling, single point]",
O=C1C(Cc2ccccc2)C(c2ccccc2)N1c1ccccc1 (configuration not stated),"inconclusive: 4.11 µM [activator, single point]",
CCC(C(=O)N1CCN(c2cc(Cl)ccc2C)CC1)n1nc(C)n2c(cc3occc32)c1=O (configuration not stated),"inconclusive: 29.1 µM [falling, single point]",
C[C@@H](CSc1ccc(Br)cc1)CN1CC[C@H](NC(=O)OCc2ccccc2)CCC1=O,"inconclusive: 29.1 µM [falling, single point]",
CN(C)S(=O)(=O)c1cccc(NC(=O)COc2ccc3ccccc3c2)c1,"inconclusive: 29.1 µM [falling, single point]",

# Random excerpt: four compounds from above, in no set order.
Structure (SMILES),Potency,"activity change, negative = inhibition"
Cc1csc2ncc(C(=O)Nc3cccc(C(F)(F)F)c3)c(=O)n12,"inconclusive: 3.26 µM [activator, partial curve, poor fit]",
Cc1ccc(CN2CC(C(=O)N3CCN(S(=O)(=O)c4cc(C)ccc4C)CC3)CC2=O)cc1 (configuration not stated),"inconclusive: 16.4 µM [falling, partial curve, poor fit]",
Cc1cc(S(=O)(=O)N2CCN(CC(=O)N(C)Cc3ccccc3)CC2)ccc1Br,"inconclusive: 29.1 µM [falling, single point]",
C=CCOC(=O)C1=C(C)NC(=O)NC1c1cc(Cl)cc(Cl)c1OC (configuration not stated),"inconclusive: 5.17 µM [falling, partial curve]",

# (more compounds)

Structure (SMILES),Potency,"activity change, negative = inhibition"
O=C(CN1CC(c2ccccc2)CC1=O)N/N=C/c1cc(Br)ccc1O (configuration not stated),"inconclusive: 13 µM [falling, partial curve]",
Cc1c(Oc2ccc(C(F)(F)F)cc2[N+](=O)[O-])ccc2c3c(c(=O)oc12)CCC3,"inconclusive: 3.66 µM [activator, full curve, poor fit]",
O=C(NC(=S)N1CCN(c2nc(-c3ccccc3)cs2)CC1)c1cncc(Br)c1,active: 23.1 µM,
CCOc1cc(C(=S)N2CCOCC2)ccc1OS(=O)(=O)c1ccc(NC(C)=O)cc1,active: 9.2 µM,
CCCCN(CCCC)S(=O)(=O)c1ccc(OC)c2ncccc12,"inconclusive: 29.1 µM [falling, partial curve, poor fit]",
CCOc1ccc(-c2nc3c(c(SCC(=O)N4CCCCC4)n2)Cc2cc(C)ccc2O3)cc1,"inconclusive: 13 µM [falling, partial curve, poor fit]",
COC(=O)c1c(-c2cccs2)csc1NC(=O)CN1CCOCC1,active: 6.51 µM,
Cc1ccc(-c2nc3ccc([N+](=O)[O-])cc3[nH]2)cc1,"inconclusive: 25.9 µM [falling, single point]",
CCOc1ccc(CN2C(=O)c3ccccc3Sc3ccc(C(=O)N4CCN(C)CC4)cc32)cc1,inactive,
CCOC(=O)N1CCC(NC(=O)c2cc(C(=O)Nc3cccc(C(F)(F)F)c3)ccc2CO)CC1,active: 5.8 µM,
CCC(CC)C(=O)Nc1c(C(=O)N2CCN(c3ccccc3F)CC2)oc2ccccc12,"inconclusive: 20.6 µM [falling, single point]",
O=C1CCCc2nc3c(cc21)C(O)Oc1c-3ccc2ccccc12 (configuration not stated),"inconclusive: 3.26 µM [activator, full curve]",
Cc1nn(C)cc1/C=C/C(=O)c1ccccc1,"inconclusive: 0.092 µM [falling, full curve, poor fit]",
Cc1cc(NC(=O)c2cccnc2)cc(-c2nc3cc(Cl)ccc3o2)c1O,inactive,
CCOC(=O)c1c(C)[nH]c(C(=O)OC(C)C(=O)Nc2ccccc2OC)c1C (configuration not stated),active: 14.6 µM,
CCOc1cc(C(=O)Nc2ccc(S(=O)(=O)NC3=NCCCCC3)cc2)cc(Br)c1OC,"inconclusive: 29.1 µM [falling, single point]",
CCOc1ccc(C2=C(C=C(C#N)C#N)C(c3ccccc3)c3ccccc3O2)cc1 (configuration not stated),"inconclusive: 29.1 µM [falling, single point]",
CCOC(=O)N1CCN(c2nc(-c3ccco3)cc(C(F)(F)F)n2)CC1,inactive,
CCOC(=O)COc1ccc(S(=O)(=O)c2ccc(OCC(=O)OCC)cc2)cc1,inactive,
CCC(=O)Nc1nnc(S(=O)(=O)N(C)Cc2ccc(Cl)cc2)s1,inactive,
CCOC(=O)c1ccc(NC(=O)CN(c2ccc(C)cc2)S(=O)(=O)c2ccc(OC)cc2)cc1,inactive,
